Assay results: article PMC10192306
These are yes or no findings as the source states them, for the method shown. In cells and extracts the contact can be indirect.

The chains behind the UniProt entries cited, without tags or fusion partners. Where a name states a change or a piece, a line headed by the entry shows the natural chain unless it says otherwise.
UniProt Q9Y5P4: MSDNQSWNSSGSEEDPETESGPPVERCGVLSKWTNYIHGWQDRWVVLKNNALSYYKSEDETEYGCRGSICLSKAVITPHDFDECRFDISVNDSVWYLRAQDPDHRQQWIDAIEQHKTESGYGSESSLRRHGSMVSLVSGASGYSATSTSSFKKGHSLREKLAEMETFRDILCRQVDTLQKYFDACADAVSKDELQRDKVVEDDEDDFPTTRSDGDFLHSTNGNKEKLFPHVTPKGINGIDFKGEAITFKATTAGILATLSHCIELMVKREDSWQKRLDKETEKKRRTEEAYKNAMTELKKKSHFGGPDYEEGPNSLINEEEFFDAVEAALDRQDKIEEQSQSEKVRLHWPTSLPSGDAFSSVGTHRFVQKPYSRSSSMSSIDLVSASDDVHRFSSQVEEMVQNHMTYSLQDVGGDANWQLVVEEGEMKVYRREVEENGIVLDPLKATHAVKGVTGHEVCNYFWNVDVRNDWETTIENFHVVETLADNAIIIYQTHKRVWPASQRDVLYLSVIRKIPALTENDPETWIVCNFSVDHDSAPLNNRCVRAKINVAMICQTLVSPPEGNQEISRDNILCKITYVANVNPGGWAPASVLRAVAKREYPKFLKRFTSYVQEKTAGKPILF
UniProt Q9UBF8: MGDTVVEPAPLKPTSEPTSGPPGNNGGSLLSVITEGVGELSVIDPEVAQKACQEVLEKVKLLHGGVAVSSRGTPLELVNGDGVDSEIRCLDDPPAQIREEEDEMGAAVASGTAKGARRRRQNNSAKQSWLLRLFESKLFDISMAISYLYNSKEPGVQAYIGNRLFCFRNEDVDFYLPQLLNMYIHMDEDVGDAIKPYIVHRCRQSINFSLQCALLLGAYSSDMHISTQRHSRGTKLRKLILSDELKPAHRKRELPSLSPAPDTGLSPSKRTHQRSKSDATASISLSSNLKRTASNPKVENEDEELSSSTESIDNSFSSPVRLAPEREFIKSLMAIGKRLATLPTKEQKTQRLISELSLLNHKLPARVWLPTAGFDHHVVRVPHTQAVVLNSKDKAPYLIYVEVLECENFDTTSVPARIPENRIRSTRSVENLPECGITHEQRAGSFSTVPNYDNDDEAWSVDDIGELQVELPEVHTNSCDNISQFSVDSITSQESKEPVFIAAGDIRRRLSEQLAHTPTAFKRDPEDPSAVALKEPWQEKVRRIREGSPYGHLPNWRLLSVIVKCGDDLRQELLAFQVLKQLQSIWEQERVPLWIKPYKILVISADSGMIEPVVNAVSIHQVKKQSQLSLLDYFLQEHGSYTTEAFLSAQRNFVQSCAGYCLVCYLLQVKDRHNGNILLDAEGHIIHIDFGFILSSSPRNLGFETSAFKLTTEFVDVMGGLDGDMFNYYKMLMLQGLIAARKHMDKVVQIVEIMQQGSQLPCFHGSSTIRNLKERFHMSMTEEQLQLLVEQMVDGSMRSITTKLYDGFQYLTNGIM

Molecular target: HA-CERT (UniProt Q9Y5P4)
Assay: co-IP; lysates of cells stably expressing HA-C10orf76 or HA-CERT incubated with anti-HA antibody-conjugated agarose for 1 h at 4°C, washed twice; eluates immunoblotted with anti-HA, anti-PI4KB or anti-CERT antibodies

PI4KB (from UniProt Q9UBF8 1-816) (enzyme)
binding: no binding
